Our source for the binding values is US20220242962A1.

Results are given in words; binding and its absence hold for the method and conditions named. Some entries that bind do so weakly or less than the wild type.

The target in assay [1] is Cyno RI (cynomolgus monkey) (UniProt Q8SPW5). In words: SPR, Fc captured, receptor as analyte. (SPR reads the build-up and loss of mass on a sensor chip optically.)
The target is the same in assay [2]. The experiment in a line: SPR, Fc captured, receptor as analyte, relative to wild type Fc.

In the case of “Wild type IgG1 Fc (from UniProt P01857 99-329)”, in assay [1], the binding entry is recorded as “binds”. In the case of TSC 1004 (from UniProt P0DOX5 218-448), in assay [2], the binding entry is listed as “binds”. As to TSC 1006 (from UniProt P0DOX5 218-448), the binding result in assay [2] is “binds”.
